Test results: PubChem BioAssay (EPA / NIEHS)
“And” between values parts separate entries of the source, which are not always exact repeats. Identical values can stand only once. The shares of active, inactive and inconclusive entries below differ from those in the screen. For part of these data: Potencies beside an inconclusive call are fits to weak or partial responses and may not hold up. The source made the active and inactive calls. How the source made its calls: active means hit-call score of the fitted dose curve at least 0.9, where 1 is the maximum; inconclusive means response in the unintended direction; inactive means score below 0.9.

Amino acid sequences for entries named in this document (tags omitted). A change or cut given only in a name is not applied to a line headed by its entry.
UniProt P10276, whole entry, looked up: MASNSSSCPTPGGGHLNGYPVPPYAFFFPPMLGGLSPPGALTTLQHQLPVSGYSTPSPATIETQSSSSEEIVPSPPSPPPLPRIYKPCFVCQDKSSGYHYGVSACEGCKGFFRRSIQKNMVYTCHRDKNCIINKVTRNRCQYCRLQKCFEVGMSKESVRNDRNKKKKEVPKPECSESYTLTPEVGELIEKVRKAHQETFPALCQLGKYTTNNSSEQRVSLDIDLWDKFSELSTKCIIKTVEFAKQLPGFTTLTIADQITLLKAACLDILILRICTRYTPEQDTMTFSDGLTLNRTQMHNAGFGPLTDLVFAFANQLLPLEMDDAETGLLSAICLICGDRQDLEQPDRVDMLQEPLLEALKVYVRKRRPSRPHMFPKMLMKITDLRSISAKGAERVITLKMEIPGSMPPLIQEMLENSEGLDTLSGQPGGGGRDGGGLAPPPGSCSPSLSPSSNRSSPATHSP
UniProt Q9Y233: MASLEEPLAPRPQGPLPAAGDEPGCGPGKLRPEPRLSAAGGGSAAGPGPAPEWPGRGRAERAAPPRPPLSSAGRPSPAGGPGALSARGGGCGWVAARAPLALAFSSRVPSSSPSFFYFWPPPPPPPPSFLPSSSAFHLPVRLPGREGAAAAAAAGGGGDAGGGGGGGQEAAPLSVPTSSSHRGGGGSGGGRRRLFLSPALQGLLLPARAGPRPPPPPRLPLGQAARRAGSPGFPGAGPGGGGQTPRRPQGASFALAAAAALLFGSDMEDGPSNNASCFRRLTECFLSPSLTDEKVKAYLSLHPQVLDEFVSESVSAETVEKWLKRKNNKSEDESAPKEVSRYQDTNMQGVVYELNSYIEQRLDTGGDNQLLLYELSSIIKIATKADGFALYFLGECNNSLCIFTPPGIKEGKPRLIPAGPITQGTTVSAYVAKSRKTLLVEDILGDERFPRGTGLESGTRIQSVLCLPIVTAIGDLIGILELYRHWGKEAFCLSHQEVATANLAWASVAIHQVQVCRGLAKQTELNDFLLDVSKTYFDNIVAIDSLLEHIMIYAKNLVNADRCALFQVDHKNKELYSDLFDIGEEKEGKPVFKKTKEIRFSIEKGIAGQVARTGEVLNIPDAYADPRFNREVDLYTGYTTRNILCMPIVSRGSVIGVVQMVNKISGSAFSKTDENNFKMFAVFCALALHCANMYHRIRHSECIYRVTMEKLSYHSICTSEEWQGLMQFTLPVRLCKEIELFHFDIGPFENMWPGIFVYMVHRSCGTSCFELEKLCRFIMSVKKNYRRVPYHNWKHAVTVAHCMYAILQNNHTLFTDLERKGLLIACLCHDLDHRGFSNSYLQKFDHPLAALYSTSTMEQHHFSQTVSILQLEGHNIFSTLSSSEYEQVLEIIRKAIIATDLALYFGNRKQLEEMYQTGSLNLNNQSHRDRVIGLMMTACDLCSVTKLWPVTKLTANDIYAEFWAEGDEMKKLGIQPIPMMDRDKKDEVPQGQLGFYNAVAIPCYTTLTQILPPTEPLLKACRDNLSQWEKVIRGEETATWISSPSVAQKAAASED
UniProt P04386, whole entry, looked up: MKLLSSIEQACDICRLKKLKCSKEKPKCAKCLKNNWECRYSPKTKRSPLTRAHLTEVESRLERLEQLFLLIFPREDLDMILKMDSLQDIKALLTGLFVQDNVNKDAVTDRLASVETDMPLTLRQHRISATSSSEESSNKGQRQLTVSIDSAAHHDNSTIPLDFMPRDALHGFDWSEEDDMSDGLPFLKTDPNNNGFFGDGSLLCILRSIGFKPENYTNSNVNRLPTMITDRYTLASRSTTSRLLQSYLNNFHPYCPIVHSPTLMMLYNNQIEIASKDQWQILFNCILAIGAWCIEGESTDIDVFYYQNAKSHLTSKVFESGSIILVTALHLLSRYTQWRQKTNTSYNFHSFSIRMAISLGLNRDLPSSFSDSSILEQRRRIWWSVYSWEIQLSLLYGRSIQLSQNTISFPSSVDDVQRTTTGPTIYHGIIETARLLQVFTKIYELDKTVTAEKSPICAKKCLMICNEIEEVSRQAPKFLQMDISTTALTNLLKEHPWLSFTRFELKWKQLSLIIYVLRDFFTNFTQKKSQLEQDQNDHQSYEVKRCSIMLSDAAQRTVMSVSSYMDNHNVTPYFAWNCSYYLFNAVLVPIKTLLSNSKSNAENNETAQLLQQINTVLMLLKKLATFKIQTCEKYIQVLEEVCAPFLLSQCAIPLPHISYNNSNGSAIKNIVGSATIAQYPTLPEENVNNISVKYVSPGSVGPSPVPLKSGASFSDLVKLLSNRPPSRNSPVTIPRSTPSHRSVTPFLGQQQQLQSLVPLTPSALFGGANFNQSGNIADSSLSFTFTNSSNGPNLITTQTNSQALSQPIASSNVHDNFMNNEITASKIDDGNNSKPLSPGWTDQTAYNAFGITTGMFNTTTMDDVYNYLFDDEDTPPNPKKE
UniProt P10827: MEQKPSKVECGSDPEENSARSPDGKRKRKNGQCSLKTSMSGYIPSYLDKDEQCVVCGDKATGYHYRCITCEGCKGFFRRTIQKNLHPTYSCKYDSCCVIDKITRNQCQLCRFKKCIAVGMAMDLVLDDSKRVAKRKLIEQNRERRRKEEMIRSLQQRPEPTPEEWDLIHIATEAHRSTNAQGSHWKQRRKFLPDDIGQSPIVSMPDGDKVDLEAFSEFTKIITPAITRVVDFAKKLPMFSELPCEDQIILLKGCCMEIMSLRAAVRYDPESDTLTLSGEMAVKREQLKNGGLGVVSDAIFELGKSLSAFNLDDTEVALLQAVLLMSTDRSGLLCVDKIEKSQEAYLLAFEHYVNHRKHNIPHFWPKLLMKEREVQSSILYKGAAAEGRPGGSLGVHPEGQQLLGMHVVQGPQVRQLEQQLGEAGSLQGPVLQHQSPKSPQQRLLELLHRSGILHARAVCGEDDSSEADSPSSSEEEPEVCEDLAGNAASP
UniProt P06212, whole entry, looked up: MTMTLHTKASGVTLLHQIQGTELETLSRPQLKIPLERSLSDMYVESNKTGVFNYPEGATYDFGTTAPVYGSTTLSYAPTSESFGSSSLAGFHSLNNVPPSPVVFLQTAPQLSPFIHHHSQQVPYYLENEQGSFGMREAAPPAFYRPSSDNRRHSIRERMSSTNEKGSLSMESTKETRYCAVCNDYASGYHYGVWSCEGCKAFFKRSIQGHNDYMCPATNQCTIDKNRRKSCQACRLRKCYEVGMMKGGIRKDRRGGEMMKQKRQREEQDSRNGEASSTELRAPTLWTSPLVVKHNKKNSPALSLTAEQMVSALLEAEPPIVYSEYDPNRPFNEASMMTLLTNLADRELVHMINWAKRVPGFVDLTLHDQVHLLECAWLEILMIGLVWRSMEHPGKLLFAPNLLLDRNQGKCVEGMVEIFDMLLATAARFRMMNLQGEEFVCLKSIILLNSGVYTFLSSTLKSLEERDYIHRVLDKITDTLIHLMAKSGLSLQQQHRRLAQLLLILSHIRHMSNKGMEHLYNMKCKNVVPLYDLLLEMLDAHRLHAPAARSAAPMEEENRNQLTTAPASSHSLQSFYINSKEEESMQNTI
UniProt P08684, whole entry, looked up: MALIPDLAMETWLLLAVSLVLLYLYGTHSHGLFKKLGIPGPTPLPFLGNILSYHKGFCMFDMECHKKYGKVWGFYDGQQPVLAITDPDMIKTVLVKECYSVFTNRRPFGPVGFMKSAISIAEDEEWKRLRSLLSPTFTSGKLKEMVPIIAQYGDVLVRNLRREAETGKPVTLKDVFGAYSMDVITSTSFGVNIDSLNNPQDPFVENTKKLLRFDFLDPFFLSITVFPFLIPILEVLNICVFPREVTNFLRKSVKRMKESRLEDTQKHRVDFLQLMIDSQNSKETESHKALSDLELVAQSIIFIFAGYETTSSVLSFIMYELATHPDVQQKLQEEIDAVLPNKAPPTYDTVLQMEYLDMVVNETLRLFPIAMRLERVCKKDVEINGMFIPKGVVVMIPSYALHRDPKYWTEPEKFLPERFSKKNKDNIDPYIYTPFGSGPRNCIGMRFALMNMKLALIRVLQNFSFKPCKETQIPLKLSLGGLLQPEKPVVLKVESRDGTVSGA
UniProt P10828: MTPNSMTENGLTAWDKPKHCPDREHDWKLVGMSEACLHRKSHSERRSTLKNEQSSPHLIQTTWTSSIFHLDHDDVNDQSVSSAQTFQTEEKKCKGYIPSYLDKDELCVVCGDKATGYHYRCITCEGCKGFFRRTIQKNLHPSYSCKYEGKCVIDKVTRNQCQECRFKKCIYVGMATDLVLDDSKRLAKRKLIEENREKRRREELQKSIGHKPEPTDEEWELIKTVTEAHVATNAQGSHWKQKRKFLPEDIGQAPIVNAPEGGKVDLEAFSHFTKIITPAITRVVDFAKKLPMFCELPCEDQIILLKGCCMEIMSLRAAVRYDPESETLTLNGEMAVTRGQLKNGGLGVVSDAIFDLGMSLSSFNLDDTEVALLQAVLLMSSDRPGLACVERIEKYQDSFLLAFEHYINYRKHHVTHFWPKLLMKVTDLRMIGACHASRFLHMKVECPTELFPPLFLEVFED

What was measured:
[1] = CCTE_Mundy_HCI_Cortical_NOG_NeuronCount: CCTE's Neurite Outgrowth Assay in rat cortical cells for Neuron Count, Mundy Lab (AID 2284236);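 further: neurons counted by imaging betaIII-tubulin and Hoechst stained cortical cells; cells exposed to compound for about 48 hours before fixation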
How it was run: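 Read-out: neuron number by high-content imaging of betaIII-tubulin (Alexa Fluor-488) and Hoechst-labelled rat primary cortical cells.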

[2] = CCTE_Mundy_HCI_hNP1_CellTiter: CCTE's Cell Titer-Glo 2 Assay in human neuroprogenitor cells for Viability, Mundy Lab (AID 2284241);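 further: a hit is a drop in ATP luminescence versus DMSO meaning reduced viability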
How it was run: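 Human neural progenitor cells (hNP1, WA09-derived) were plated on poly-L-ornithine/laminin and grown 40 to 44 hours at 37 °C, 5% CO2 before chemical addition. Twenty-four hours later, ATP was measured by CellTiter-Glo luminescence; loss of signal versus DMSO indicates reduced viability.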

[3] = Tanguay_ZF_120hpf_SWIM_legacy: (Legacy) Oregon State University Tanguay Lab 120 Hour Post-fertilization zebrafish Assay for Swim Bladder Malformation (AID 2283654);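 further: swim bladder malformation in each larva scored yes or no under brightfield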
How it was run: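 Embryos lacking chorions were exposed individually and statically to test chemical from 6 to 120 hpf at 28C, with 0.64% DMSO as vehicle. At 120 hpf, swim bladder malformation was recorded as present or absent by brightfield microscopy.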

[4] = molecular target: Retinoic acid receptor alpha (Homo sapiens) (UniProt P10276); assay: NVS_NR_hRAR_Antagonist: NovaScreen (NVS) Nuclear Receptor Binding Assay for human Retinoic Acid Alpha Receptor Antagonism (RAR) (AID 2283358)
How it was run: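 TR-FRET, cell-free, antagonist format; 2 h incubation after dosing; DMSO = baseline; signal loss fitted; 25 uM duplicate primary, then conc. series.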

[5] = read-out: glucuronosyltransferase (UGT1A1), UGT1A1 (gene 54658); assay: CLD_UGT1A1_24hr: CellzDirect (CLD) Gene Expression Assay for glucuronosyltransferase (UGT1A1) at 24 hours (AID 2283696)
How it was run: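 Primary human hepatocytes from two donor preparations were dosed (0.2% DMSO vehicle) and harvested at 24 h; UGT1A1 mRNA induction was quantified by chemiluminescent qNPA, fitted as gain relative to DMSO.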

[6] = ACEA_AR_antagonist_AUC_viability: ACEA Biosciences xCELLigence Real-Time Cell Analysis on Androgen Receptor Antagonism for Viability (AID 2283776);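 further: 22Rv1 human prostate cancer cells growing on impedance electrode plates; area under impedance growth curve at 80 h after dosing as viability; hits lower the growth signal relative to DMSO meaning cytotoxicity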
How it was run: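 Real-time electrical impedance tracks 22Rv1 proliferation after continuous compound exposure (top 100 uM final, 1:4 steps, 8 concentrations). The 80 h area-under-curve serves as the cytotoxicity readout relative to DMSO.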

[7] = CCTE_Shafer_MEA_dev_active_electrodes_number: CCTE's Neural Network Formation Assay for Number of Active Electrodes, Shafer Lab (AID 2284040);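 further: potency for loss of active electrodes versus DMSO so lower counts are hits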
How it was run: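 Primary rat cortical neurons on 16-electrode MEA wells, exposed from day 0 through day 12 with compound renewed at DIV 5 and 9 feeds. Active electrodes (mean firing ≥5 spikes/min) counted at DIV 5, 7, 9, 12; trapezoidal AUC across days, loss-of-signal versus DMSO.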

[8] = molecular target: human Phosphodiesterase 10 (PDE10), PDE10A (gene 10846) (UniProt Q9Y233); assay: NVS_ENZ_hPDE10: NovaScreen (NVS) Enzymatic Assay for human Phosphodiesterase 10 (PDE10) (AID 2283195)
How it was run: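 PDE10A, cell-free; 1 h incubation; fluorescence intensity + electrophoretic mobility shift separating substrate/product; DMSO = baseline; 25 uM duplicate primary, CRC up to 50 uM.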

[9] = test system: turtle Androgen Receptor (AR), gene 101947425; assay: ATG_trAR_XSP1: Attagene TRANS-FACTORIAL Multi-Species (XSP1) HepG2 Assay for turtle Androgen Receptor (AR) (AID 2283786)
How it was run: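 HepG2 cells transiently transfected with a turtle AR–GAL4 chimera and GAL4-UAS reporter, co-treated with 3 nM 6-alpha-fluorotestosterone for partial stimulation. Reporter mRNA is quantified at 24 h by RT-PCR and capillary electrophoresis, gain-of-signal versus DMSO.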

[10] = molecular target: GAL4 Transcription Factor (Internal Marker), GAL4 (gene 855828) (UniProt P04386); assay: ATG_GAL4_XSP1: Attagene TRANS-FACTORIAL Multi-Species (XSP1) HepG2 Assay for GAL4 Transcription Factor (Internal Marker) (AID 2283789)
How it was run: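 HepG2 cells transiently transfected with multiplexed GAL4-UAS reporter units were exposed for 24 h with 3 nM 6-alpha-fluorotestosterone present. Reporter mRNA was quantified by RT-PCR, FAM labelling, HpaI digestion and capillary electrophoresis; background-control readout, gain-of-signal versus DMSO.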

[11] = molecular target: human Thyroid hormone Receptor alpha (TRa), THRA (gene 7067) (UniProt P10827); assay: ATG_hTRa_XSP1: Attagene TRANS-FACTORIAL Multi-Species (XSP1) HepG2 Assay for human Thyroid hormone Receptor alpha (TRa) (AID 2283805)
How it was run: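 HepG2 cells transiently transfected with GAL4-UAS reporter units expressing chimeric NR-Gal4 proteins, dosed 24 hours with 3 nM 6-alpha-fluorotestosterone present. Reporter mRNA measured by RT-PCR and capillary electrophoresis; gain of signal fitted versus DMSO.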

[12] = molecular target: GAL4 Transcription Factor (Internal Marker), GAL4 (gene 855828) (UniProt P04386); assay: ATG_GAL4_XSP2: Attagene TRANS-FACTORIAL Multi-Species (XSP2) HepG2 Assay for GAL4 Transcription Factor (Internal Marker) (AID 2283814);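 further: GAL4 reporter mRNA background control in MRTU transfected cells not a receptor target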
How it was run: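 HepG2 cells transiently transfected with GAL4-UAS reporter units, stimulated with 3 nM 6-alpha-fluorotestosterone plus 1.5 nM norgestrel, dosed 24 h. Reporter mRNA by RT-PCR/capillary electrophoresis; gain-of-signal fit versus DMSO, background control.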

[13] = molecular target: chicken Estrogen Receptor (ERa), ESR1 (gene 396099) (UniProt P06212); assay: ATG_chERa_XSP2: Attagene TRANS-FACTORIAL Multi-Species (XSP2) HepG2 Assay for chicken Estrogen Receptor (ERa) (AID 2283817);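 further: actives raise reporter signal above DMSO so AC50 reflects ER activation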
How it was run: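 Transient MRTU transfection of HepG2 → 24 h chemical dosing → TriZol RNA, oligo(dT) RT → PCR, 6-FAM primer extension, HpaI digest → CE quantitation of chicken ERa-Gal4-driven reporter mRNA. Positive direction vs DMSO.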

[14] = ATG_M_32_XSP2: Attagene TRANS-FACTORIAL Multi-Species (XSP2) HepG2 Assay for M19 Transcription Factor (Internal Marker) (AID 2283826)
How it was run: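 HepG2 cells transiently transfected with GAL4-UAS reporter transcription units, dosed with compound for 24 h in presence of 3 nM 6-alpha-fluorotestosterone and 1.5 nM norgestrel; reporter mRNA quantified by RT-PCR, FAM labelling, HpaI digestion and capillary electrophoresis.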

[15] = read-out: Cytochrome P450 3A4 (Homo sapiens) (UniProt P08684); assay: CLD_CYP3A4_24hr: CellzDirect (CLD) Gene Expression Assay for xenobiotic metabolism (CYP3A4) at 24 hours (AID 2283689)
How it was run: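 Primary human hepatocytes from two donors dosed daily with fresh compound for two days, 0.2% DMSO vehicle. CYP3A4 mRNA at 24 hr by qNPA chemiluminescence; gain-of-signal fit versus DMSO, cytotoxicity flagged by morphology.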

[16] = read-out: alkyl and aryl transferase (GSTA2), GSTA2 (gene 2939); assay: CLD_GSTA2_6hr: CellzDirect (CLD) Gene Expression Assay for alkyl and aryl transferase (GSTA2) at 6 hours (AID 2283666)
How it was run: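 Primary human hepatocytes from two donor preparations were dosed daily with fresh compound at multiple concentrations, 0.2% DMSO vehicle. GSTA2 mRNA was measured at 6 hours by qNPA chemiluminescence; induction fitted relative to DMSO, with cytotoxicity flagged morphologically.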

[17] = molecular target: Beta-2 adrenergic receptor (Homo sapiens) (UniProt P07550); assay: NVS_GPCR_hAdrb2: NovaScreen (NVS) G Protein-Coupled Receptor Assay for human Adrenergic, Beta 2 Receptor (Adrb2) (AID 2283261)
How it was run: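 Filter-based radioligand binding using receptor prepared from CHO cells, 1 h incubation, scintillation counting. Primary screen in duplicate at 25 uM, actives retested in concentration series; loss of binding relative to DMSO.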

[18] = test system: zebrafish Peroxisome Proliferator-activated Receptor gamma (PPARg), gene 557037; assay: ATG_zfPPARg_XSP2: Attagene TRANS-FACTORIAL Multi-Species (XSP2) HepG2 Assay for zebrafish Peroxisome Proliferator-activated Receptor gamma (PPARg) (AID 2283833);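 further: actives increase reporter signal over DMSO so AC50 reflects activation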
How it was run: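 HepG2 cells transiently transfected with GAL4-UAS reporter units expressing a zebrafish PPARg–GAL4 chimera; compound exposure 24 h. Reporter mRNA quantified by RT-PCR with fluorescent labelling and capillary electrophoresis; gain of signal fitted relative to DMSO baseline.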

[19] = molecular target: human Thyroid hormone Receptor beta (TRb), THRB (gene 7068) (UniProt P10828); assay: ATG_hTRb_XSP2: Attagene TRANS-FACTORIAL Multi-Species (XSP2) HepG2 Assay for human Thyroid hormone Receptor beta (TRb) (AID 2283840);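 further: actives raise reporter mRNA so potency reflects agonist-like gain of signal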
How it was run: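 HepG2 cells were transiently transfected with GAL4-UAS multiplexed reporter units expressing chimeric NR-Gal4 proteins, dosed 24 h; reporter mRNA was quantified by RT-PCR, fluorescent labeling, HpaI digestion and capillary electrophoresis, fitted for gain of signal versus DMSO.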

[20] = molecular target: human Thyroid Receptor Alpha (TRa), THRA (gene 7067) (UniProt P10827); assay: NVS_NR_hTRa_Antagonist: NovaScreen (NVS) Nuclear Receptor Binding Assay for human Thyroid Receptor Alpha Antagonism (TRa) (AID 2283362);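 further: activity is loss of signal relative to DMSO baseline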
How it was run: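 Cell-free binding assay on extracted receptor protein, read 1 h after chemical dosing by AlphaLISA chemiluminescence; loss of signal relative to DMSO baseline marks antagonism. Primary screen ran in duplicate at 25 uM, with concentration series for actives.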

Structure (SMILES): Cc1ccccc1OP(=O)(Oc1ccccc1C)Oc1ccccc1C
- AC50 [1]: active: 24.1 µM
- AC50 [2]: active: 18.3 µM

Structure (SMILES): Clc1ccc(C(Cl)(Cl)Cl)cc1
- outcome [3]: inactive

Structure (SMILES): Cc1ccc(N=CN(C)C=Nc2ccc(C)cc2C)c(C)c1
- outcome [4]: inactive
- AC50 [5]: inconclusive: 20 µM

Structure (SMILES): COCc1cnc(C2=NC(C)(C(C)C)C(=O)N2)c(C(=O)O)c1 (stereo unspecified)
- AC50 [6]: inconclusive: 0.00061 µM

Structure (SMILES): O=C(O)C(F)(F)C(F)(F)C(F)(F)C(F)(F)C(F)(F)C(F)(F)C(F)(F)C(F)(F)F
- AC50 [7]: inconclusive: 15 µM

Structure (SMILES): CCNc1nc(NC(C)(C)C)nc(SC)n1
- AC50 [8]: inconclusive: 0.161 µM

Structure (SMILES): C=CC(N)=O
- AC50 [4]: inconclusive: 0.597 µM
- AC50 [1]: inconclusive: 50 µM

Structure (SMILES): CCOP(=S)(OCC)SCn1c(=O)oc2cc(Cl)ccc21
- outcome [3]: inactive
- AC50 [6]: active: 76.9 µM
- AC50 [9]: inconclusive: 63.6 µM
- AC50 [10]: inconclusive: 100 µM
- AC50 [11]: inconclusive: 100 µM
- outcome [12]: inactive
- outcome [13]: inactive
- AC50 [14]: inconclusive: 0.00914 µM

Structure (SMILES): N#CN
- AC50 [15]: inconclusive: 0.384 µM
- AC50 [5]: inconclusive: 20 µM

Structure (SMILES): CCOP(=O)(OCC)Oc1cc(C)nc(C(C)C)n1
- AC50 [16]: inconclusive: 20 µM
- AC50 [1]: inconclusive: 9.45e-05 µM

Structure (SMILES): CCS(=O)(=O)c1cccnc1S(=O)(=O)NC(=O)Nc1nc(OC)cc(OC)n1
- AC50 [4]: inconclusive: 0.61 µM

Structure (SMILES): CCCCOCN(C(=O)CCl)c1c(CC)cccc1CC
- AC50 [3]: inconclusive: 20.4 µM

Structure (SMILES): CS/C(C)=N/OC(=O)N(C)SN(C)C(=O)O/N=C(\C)SC
- AC50 [15]: inconclusive: 20 µM

Structure (SMILES): O=C(O)COc1cc(Cl)c(Cl)cc1Cl
- AC50 [6]: inconclusive: 0.0297 µM

Structure (SMILES): COC(=O)N(OC)c1ccccc1COc1ccn(-c2ccc(Cl)cc2)n1
- AC50 [17]: inconclusive: 25 µM
- AC50 [9]: inconclusive: 18.4 µM
- outcome [10]: inactive
- AC50 [11]: active: 1.51 µM
- outcome [13]: inactive
- outcome [14]: inactive
- outcome [18]: inactive
- outcome [19]: inactive

Structure (SMILES): CC(C)(c1cc(Cl)c(O)c(Cl)c1)c1cc(Cl)c(O)c(Cl)c1
- AC50 [8]: inconclusive: 0.125 µM
- AC50 [9]: inconclusive: 61.6 µM
- AC50 [10]: inconclusive: 100 µM
- outcome [11]: inactive
- AC50 [12]: inconclusive: 51.2 µM
- AC50 [13]: inconclusive: 185 µM
- outcome [14]: inactive

Structure (SMILES): c1cc2ccc3cccc4ccc(c1)c2c34
- outcome [12]: inactive
- AC50 [13]: active: 13.9 µM and active: 25.4 µM

Structure (SMILES): O=C(O)C(F)(F)C(F)(F)C(F)(F)C(F)(F)C(F)(F)C(F)(F)C(F)(F)C(F)(F)C(F)(F)C(F)(F)F
- AC50 [3]: inconclusive: 24.6 µM

Structure (SMILES): c1ccc2c(c1)Nc1ccccc1S2
- outcome [12]: inactive
- AC50 [14]: inconclusive: 100 µM
- outcome [18]: inactive
- AC50 [19]: inconclusive: 0.193 µM

Structure (SMILES): CC(COc1ccc(Oc2ccccc2)cc1)Oc1ccccn1 (stereo unspecified)
- AC50 [4]: inconclusive: 25 µM
- AC50 [20]: inconclusive: 2.63 µM
- AC50 [5]: active: 4.08 µM
